Results are given in words; binding and its absence hold for the method and conditions named. In cells and extracts the contact can be indirect. Some entries that bind do so weakly or less than the wild type. Tags and fused reporters may be left off the sequences shown.
Target: GSAAT2 (glutamate-1-semialdehyde aminotransferase 2) fused to a half of YFP-Venus (Arabidopsis thaliana) (UniProt Q42522)
Assay: split reporter; BiFC with halves of YFP-Venus, transient co-expression in N. benthamiana leaves for 48-72 h in the dark, confocal microscopy; GSAAT-YFPc with GBP-YFPn, HEMA1-YFPn or GSAAT-YFPn

Amino acid sequences for entries named in this document (tags omitted). Residues count along the entry.
UniProt Q42522, residues 37-472: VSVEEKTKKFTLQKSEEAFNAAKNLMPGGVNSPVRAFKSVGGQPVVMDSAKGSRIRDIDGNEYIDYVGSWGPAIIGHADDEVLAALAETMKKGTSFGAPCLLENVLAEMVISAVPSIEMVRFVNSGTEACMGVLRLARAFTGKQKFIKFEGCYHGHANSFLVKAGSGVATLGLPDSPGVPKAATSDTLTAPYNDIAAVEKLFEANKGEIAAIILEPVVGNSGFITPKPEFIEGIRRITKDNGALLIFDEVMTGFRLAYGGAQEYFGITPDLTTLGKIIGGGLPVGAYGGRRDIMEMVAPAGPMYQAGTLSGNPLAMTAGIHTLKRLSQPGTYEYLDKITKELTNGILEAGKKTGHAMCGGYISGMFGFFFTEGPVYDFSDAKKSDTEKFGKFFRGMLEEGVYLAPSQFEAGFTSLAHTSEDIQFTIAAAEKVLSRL

binding: binds
B1: GluTR-binding protein (GBP) fused to the N-terminal half of YFP-Venus (protein, UniProt Q9LU39 43-317)
chain: SVSTTLDTPATASTHKPFPAEVSRSIMELSSVGTLSTLTHDGWPLGVGVRFAVDKDGTPVLCLNRSVSPDKRSALHVQLEQCGLRTPQCTIQGSIGRPGDDTVLKRLSATWREKFGEEVKEDSLYVVAVDRVLQMEDFMEDGIWVASSDYKNASPDPLRDIAEDIVNQINANNMEDIFRFCNVYVDLDFVVSETKMIWMDRLGFDLRVWSPRGVYDVRIPFPMEVTDEKGAKSSFNGMSQLAWEVEKSYCPADFNKVKLLKQVVGSSHSHKGGGQ

— paper PMC9614494
